Test results taken from patent EP0679394B1, “Menatetronome derivative as antiarteriosclerotic agent” (Eisai Co., Ltd., priority 1994, dated 1995).

Tested on: arteriosclerotic rats
Test: Effect of vitamin K2 on arteriosclerotic rats (vitamin D2-induced calcification)
Type: in vivo
Conditions: Group A: vitamin D2 2.5 × 10^5 IU/kg/day p.o. alone
Description: Then vitamin D2, vitamin D2 with vitamin K2 (in a low dose), and vitamin D2 with vitamin K2 (in a high dose) were given respectively to the groups A, B and C.
After feeding for five weeks, the urine of each group was sampled for a period of 20 hours and the urinary calcium, phosphorus and creatinine levels were measured.
After feeding for six weeks, the animals of each group were bled to death and the blood, aorta (from the aortic arch to the thoracic aorta) and kidneys were sampled.
The serum was separated from the blood and the serum calcium and phosphorus levels were measured.
The aorta and kidneys were defatted, dehydrated and incinerated and the calcium and phosphorus contents therein were determined.
The calcium concentrations were determined by atomic absorption spectrophotometry. The inorganic phosphorus concentrations were determined by Goldenberg's method. The creatinine concentrations were determined by the enzymatic method.
(The data of each group were compared with those of the control group according to the t-test method.)

[1] = urine sampled for 20 hours after five weeks

`C=C1CC[C@H](O)C/C1=C/C=C1\CCC[C@]2(C)[C@@H]([C@H](C)/C=C/[C@H](C)C(C)C)CC[C@@H]12` [vitamin D2] was tested, and the “Serum Ca” value (6 weeks, n=8) was 9.8 ± 1.4 mg/dL, the “Serum P” value (6 weeks, n=8) was 8.2 ± 1.4 mg/dL and the “Urine Ca” value [1] was 1.9 ± 1.0 mg/dL. For the same molecule, the “Urine P” value [1] was 59.1 ± 20.2 mg/dL, the Urine creatinine [1] was 77.2 ± 22.8 mg/dL and the Urine urine volume [1] was 18.6 ± 12.3 mL.
